# Measurements as given in patent publication US5731285A (A. Menatini Industrie Farmaceutiche, priority 1992, dated 1998).
# HELM strings list residues between dots; [ac] is acetyl, [am] amide, other brackets name non-standard units.
# Experiment: general procedure: Boc solid-phase peptide synthesis; Boc-Leu-OCH2-PAM resin (Applied BioSystem, 0.8 meq/g); PyBop; symmetric anhydride (dicyclohexyl carbodiimide); HOBt
# Details: cyclisation step, 210 nm
substance,measurement,value
"PEPTIDE1{M.D.W.F.[Dpr].L}$PEPTIDE1,PEPTIDE1,1:R1-6:R2|PEPTIDE1,PEPTIDE1,2:R3-5:R3$$$V2.0",final HPLC purity,>99%
